Results taken from paper PMC10881024.
Results are given in words; binding and its absence hold for the method and conditions named. Where a sequence is shown, tags or fusion partners need not be part of it.

T1: human FCRL3 (MAIA) entire ectodomain, biotinylated, rat Cd4 domains 3 and 4 tagged (bait construct) (human) (UniProt Q96P31)
T1 sequence (chain, enzymatically biotinylated (BirA) on the biotinylation target sequence): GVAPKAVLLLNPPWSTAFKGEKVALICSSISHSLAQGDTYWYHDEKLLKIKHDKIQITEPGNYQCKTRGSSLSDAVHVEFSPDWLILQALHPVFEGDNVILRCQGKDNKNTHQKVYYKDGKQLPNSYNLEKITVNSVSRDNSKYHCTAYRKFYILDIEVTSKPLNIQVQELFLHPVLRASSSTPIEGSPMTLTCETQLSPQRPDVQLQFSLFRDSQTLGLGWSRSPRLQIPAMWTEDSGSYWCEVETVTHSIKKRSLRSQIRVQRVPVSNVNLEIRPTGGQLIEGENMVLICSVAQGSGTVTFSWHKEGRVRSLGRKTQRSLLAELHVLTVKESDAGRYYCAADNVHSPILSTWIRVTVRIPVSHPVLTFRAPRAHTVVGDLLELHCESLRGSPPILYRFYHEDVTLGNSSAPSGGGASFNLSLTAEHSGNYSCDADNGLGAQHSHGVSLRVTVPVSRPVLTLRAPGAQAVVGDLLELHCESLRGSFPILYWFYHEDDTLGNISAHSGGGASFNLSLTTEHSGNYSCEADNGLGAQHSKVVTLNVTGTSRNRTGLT


Molecular target: T1, human FCRL3 (MAIA) entire ectodomain, biotinylated, rat Cd4 domains 3 and 4 tagged (bait construct) (human)
Assay: SAVEXIS; purified monomeric biotinylated baits at 13.4 nM captured on streptavidin-coated plates 16 hours at 4°C; preys made multimeric by clustering biotinylated monomers around streptavidin-HRP, 4.4 nM, 1 hour at room temperature; HBS-T washes with desthiobiotin; tetramethylbenzidine, absorbance at 650 nm; both purified

| Binder | binding |
| --- | --- |
| human SPACA6 ectodomain, biotinylated, rat Cd4 domains 3 and 4 tagged (domain or fragment, UniProt W5XKT8 27-295, enzymatically biotinylated (BirA) on the biotinylation target sequence) CLLCFTTYSERLRICQMFVGMRSPKLEECEEAFTAAFQGLSDTEINYDERSHLHDTFTQMTHALQELAAAQGSFEVAFPDAAEKMKKVITQLKEAQACIPPCGLQEFARRFLCSGCYSRVCDLPLDCPVQDVTVTRGDQAMFSCIVNFQLPKEEITYSWKFAGGGLRTQDLSYFRDMPRAEGYLARIRPAQLTHRGTFSCVIKQDQRPLARLYFFLNVTGPPPRAETELQASFREVLRWAPRDAELIEPWRPSLGELLARPEALTPSNL | no binding (tested: 4.4 nM multimeric prey) |
| human TMEM81 ectodomain, biotinylated, rat Cd4 domains 3 and 4 tagged (domain or fragment, UniProt Q6P7N7 31-226, enzymatically biotinylated (BirA) on the biotinylation target sequence) IPEKLQEAVGKVIINATTCTVTCGLGYKEETVCEVGPDGVRRKCQTRRLECLTNWICGMLHFTILIGKEFELSCLSSDILEFGQEAFRFTWRLARGVISTDDEVFKPFQANSHFVKFKYAQEYDSGTYRCDVQLVKNLRLVKRLYFGLRVLPPNLVNLNFHQSLTEDQKLIDEGLEVNLDSYSKPHHPKWKKKVAS | no binding (tested: 4.4 nM multimeric prey) |
